Data from patent publication US12606805B2, “Tymovirus virus and virus-like particles as nanocarriers for imaging and therapeutic agents” (priority 2017, dated 2026).
At least one structure is not confirmed: it was looked up by name or label, or the drawing left a doubt.

Chains of the proteins cited; added tags and fusions are not shown. Lines headed by an entry give the natural chain unless they say otherwise; changes in a name come on top.
UniProt P36351: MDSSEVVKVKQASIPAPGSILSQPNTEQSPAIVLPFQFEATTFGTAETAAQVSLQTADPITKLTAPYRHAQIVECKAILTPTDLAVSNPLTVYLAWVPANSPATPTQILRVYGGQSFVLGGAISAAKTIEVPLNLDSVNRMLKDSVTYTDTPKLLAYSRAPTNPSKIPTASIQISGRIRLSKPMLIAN

Biological target: T1, PhMV-derived VLPs (Physalis mottle virus, UniProt P36351)
T1 construct: The coat protein gene (564 bp) was inserted into the vector pRSET-A and expressed in ClearColi BL21(DE3); made in house; host or cells: E. coli ClearColi BL21(DE3)
Conditions: infusion overnight at room temperature, molar excess 500 to 10,000 per VLP
Experimental: The VLPs were loaded with rhodamine B, fluorescein, crystal violet, MTX dihydrochloride (all Sigma-Aldrich), PS (cationic zinc ethynylphenyl porphyrin, full name 5-(4-ethynylphenyl)-10,15,20-tris)4-methylpyridin-4-ium-1-yl)porphyrin zinc(II) triiodide), or DOX hydrochloride (Indofine Chemical Company). The VLPs (1 mg/mL in KP buffer) were incubated with a molar excess of 500, 2500, 5000, or 10000 cargo molecules per particle overnight at room temperature in the dark, before purification over a 30% (w/v) sucrose cushion to remove excess reagents by ultracentrifugation at 52,000 rpm using a TLA 55 rotor (Beckman Coulter Inc.) at 4° C. for 1 h. PS-PhMV and DOX-PhMV were synthesized for further characterization using a 5000-fold molar excess.
A NanoDrop 2000 spectrophotometer (Thermo Fisher Scientific) was used to characterize the UV/visible spectra of native and modified VLPs. The dye load was determined using the protein concentration (measured using the Bradford assay), the Beer-Lambert law and the following dye-specific extinction coefficients: rhodamine B, F(553 nm)=116,000 M^−1 cm^−1; DOX, ε(496 nm)=11,500 M^−1 cm^−1; crystal violet, ε(590 nm)=87,000 M^−1 cm^−1; PS, ε(450 nm)=195,000 M^−1 cm^−1; MTX, ε(622 nm)=25,000 M^−1 cm^−1; sulfo-Cy5 NHS ester, ε(646 nm)=271,000 M^−1 cm^−1; Cy5.5-maleimide, 8(673 nm)=209,000 M^−1 cm^−1. […]

O=C1OC2(c3ccc(O)cc3Oc3cc(O)ccc32)c2ccccc21 [fluorescein]
Number of guest molecules loaded per VLP (affinity of the VLPs): ~200 molecules per particle
